Measured values published in patent US20210261642A1, “SOLUBILITY OF GLP-1 PEPTIDE” (Novo Nordisk A/S, priority 2017, published 2021).
Further values from the same series stand in other lists.

Experiment: Assay (I): Determination of Solubility (96-well plate, pH 3.0-11.0, organic solvent 0-70% w/w, UV absorption at 280 nm)
Format: physicochemical
Details: Method 1 (evaporation)
Description: Assay (I): Determination of Solubility
96-Well Plate Preparation
96-well plates containing target peptide in a solid form were prepared in one of two ways:
Method 1 (evaporation): Addition of 100 μl stock solution of said peptide at a concentration of 4-6 mg/ml to each well of a 96-well half area plate (150 μl well size). Subsequently the solvent was evaporated by applying a vacuum until the solvent was completely removed.
Method 2 (precipitation): Addition of a certain volume of a stock solution of said peptide containing to each well of a 96-well half area plate followed by the addition of a certain volume of concentrated phosphoric acid to obtain a pH of 4.6 followed by addition of a certain volume of ethanol resulting in a final ethanol concentration of 20% v/v. Subsequently the plate was stored at 4° C. for 1 h and then centrifuged at 4,000 rpm for 20 min. Finally the supernatant was removed. The concentration of the stock solution was chosen in a way that the final amount of peptide after supernatant removal was >0.4 mg per well.
In both cases the stock solution was prepared by adding de-ionized water to a certain amount of powder of said peptide followed by a stepwise addition of small amounts of a concentrated sodium hydroxide solution until said peptide was completely in solution.
To determine solubility of a target peptide at different pH and organic solvent concentrations, two different buffer systems were used in independent experiments to cover the whole range from pH 3.0 to pH 11.0. Buffer system 1 covers pH 3.0-7.5 and buffer system 2 covers pH 7.5-11.0. For each buffer system 96 different solvent compositions were premixed in the following way: • 1. A low pH buffer (adjusted to either pH 3.0 or pH 7.5) and a high pH buffer (adjusted to either pH 7.5 or pH 11.0) were mixed at 8 different ratios to obtain values between pH 3.0 and pH 7.5 or pH 7.5 and pH 11.0, respectively. The total volume after mixing was 300 μl. • 2. 12 different amounts of organic solvent were then added to these buffers to obtain organic solvent (e.g. ethanol) concentrations between 0 and 70% w/w. • 3. Water was then added to obtain a total weight of 1.0 g of solvent in each well.
After preparing the 96 different solvent systems, 100 μl of each system was transferred to the 96-well plate containing the solid form of the target peptide (prepared as described in the section “96-well plate preparation”). The plate was then stored at a given temperature (between 5° C. and 70° C.) for a given time on a rotating shaker set to 400 rpm. At regular time intervals the plate was centrifuged (4,000 rpm for 10 min) and a 10 μl sample was taken from each well. The samples were then analysed by UV absorption at 280 nm for peptide quantification. Peptide concentration results are given as UV absorption at 280 nm of the sample subtracted UV absorption at 280 nm of a well comprising 10 μl water.
The buffers used were as follows: • Buffer system 1 (for the pH range from pH 3.0-7.5)
• Buffer system 2 (for the pH ranae from pH 7.5-11.0)
Solubility of liraglutide was determined using Assay (I) described herein. Liraglutide was prepared using Method 1 (evaporation) or Method 2 (precipitation) as described in subsection “96-well plate preparation”.

Peptide concentration after 5 min (DMF 0.0% w/w, pH 3.1, RT): 0.2 mg/mL
Peptide concentration after 180 min (DMF 0.0% w/w, pH 3.1, RT): 0.2 mg/mL
Peptide concentration after 5 min (DMF 0.0% w/w, pH 4.8, RT): 0.2 mg/mL
Peptide concentration after 180 min (DMF 0.0% w/w, pH 4.8, RT): 0.2 mg/mL
Peptide concentration after 5 min (DMF 0.0% w/w, pH 5.8, RT): 0.2 mg/mL
Peptide concentration after 180 min (DMF 0.0% w/w, pH 5.8, RT): 1.1 mg/mL
Peptide concentration after 5 min (DMF 0.0% w/w, pH 6.3, RT): 0.9 mg/mL
Peptide concentration after 180 min (DMF 0.0% w/w, pH 6.3, RT): 2.4 mg/mL
Peptide concentration after 24 h (DMF 0.0% w/w, pH 6.3, RT): >4.0 mg/mL
Peptide concentration after 5 min (DMF 0.0% w/w, pH 6.7, RT): 1.0 mg/mL
Peptide concentration after 180 min (DMF 0.0% w/w, pH 6.7, RT): 3.1 mg/mL
Peptide concentration after 5 min (DMF 0.0% w/w, pH 6.9, RT): 1.1 mg/mL
Peptide concentration after 180 min (DMF 0.0% w/w, pH 6.9, RT): >4.0 mg/mL
Peptide concentration after 24 h (DMF 0.0% w/w, pH 6.9, RT): >4.0 mg/mL
Peptide concentration after 5 min (DMF 0.0% w/w, pH 7.2, RT): 0.7 mg/mL
Peptide concentration after 180 min (DMF 0.0% w/w, pH 7.2, RT): >4.0 mg/mL
Peptide concentration after 24 h (DMF 0.0% w/w, pH 7.2, RT): >4.0 mg/mL
Peptide concentration after 5 min (DMF 0.0% w/w, pH 7.5, RT): 1.9 mg/mL
Peptide concentration after 180 min (DMF 0.0% w/w, pH 7.5, RT): >4.0 mg/mL
Peptide concentration after 5 min (DMF 0.0% w/w, pH 8.0, RT): 2.2 mg/mL
Peptide concentration after 180 min (DMF 0.0% w/w, pH 8.0, RT): >4.0 mg/mL
Peptide concentration after 5 min (DMF 0.0% w/w, pH 8.5, RT): 2.0 mg/mL
Peptide concentration after 180 min (DMF 0.0% w/w, pH 8.5, RT): >4.0 mg/mL
Peptide concentration after 5 min (DMF 0.0% w/w, pH 9.0, RT): 2.7 mg/mL
Peptide concentration after 180 min (DMF 0.0% w/w, pH 9.0, RT): >4.0 mg/mL
Peptide concentration after 5 min (DMF 0.0% w/w, pH 9.5, RT): 2.7 mg/mL
Peptide concentration after 180 min (DMF 0.0% w/w, pH 9.5, RT): >4.0 mg/mL
Peptide concentration after 5 min (DMF 0.0% w/w, pH 10.0, RT): 2.6 mg/mL
Peptide concentration after 180 min (DMF 0.0% w/w, pH 10.0, RT): >4.0 mg/mL
Peptide concentration after 5 min (DMF 0.0% w/w, pH 10.5, RT): 2.9 mg/mL
Peptide concentration after 180 min (DMF 0.0% w/w, pH 10.5, RT): >4.0 mg/mL
Peptide concentration after 5 min (DMF 0.0% w/w, pH 11.0, RT): 2.4 mg/mL
Peptide concentration after 180 min (DMF 0.0% w/w, pH 11.0, RT): >4.0 mg/mL
Peptide concentration after 5 min (DMF 6.4% w/w, pH 3.1, RT): 0.2 mg/mL
Peptide concentration after 180 min (DMF 6.4% w/w, pH 3.1, RT): 0.3 mg/mL
Peptide concentration after 24 h (DMF 6.4% w/w, pH 3.1, RT): 0.8 mg/mL
Peptide concentration after 5 min (DMF 6.4% w/w, pH 4.8, RT): 0.2 mg/mL
Peptide concentration after 180 min (DMF 6.4% w/w, pH 4.8, RT): 0.4 mg/mL
Peptide concentration after 24 h (DMF 6.4% w/w, pH 4.8, RT): 0.2 mg/mL
Peptide concentration after 5 min (DMF 6.4% w/w, pH 5.8, RT): 0.3 mg/mL
Peptide concentration after 180 min (DMF 6.4% w/w, pH 5.8, RT): 2.9 mg/mL
Peptide concentration after 24 h (DMF 6.4% w/w, pH 5.8, RT): 2.1 mg/mL
Peptide concentration after 5 min (DMF 6.4% w/w, pH 6.3, RT): 0.9 mg/mL
Peptide concentration after 180 min (DMF 6.4% w/w, pH 6.3, RT): 2.5 mg/mL
Peptide concentration after 24 h (DMF 6.4% w/w, pH 6.3, RT): >4.0 mg/mL
Peptide concentration after 5 min (DMF 6.4% w/w, pH 6.7, RT): 1.2 mg/mL
Peptide concentration after 180 min (DMF 6.4% w/w, pH 6.7, RT): 2.5 mg/mL
Peptide concentration after 24 h (DMF 6.4% w/w, pH 6.7, RT): >4.0 mg/mL
Peptide concentration after 5 min (DMF 6.4% w/w, pH 6.9, RT): 1.1 mg/mL
Peptide concentration after 180 min (DMF 6.4% w/w, pH 6.9, RT): 3.2 mg/mL
Peptide concentration after 24 h (DMF 6.4% w/w, pH 6.9, RT): >4.0 mg/mL
Peptide concentration after 5 min (DMF 6.4% w/w, pH 7.2, RT): 1.1 mg/mL
Peptide concentration after 180 min (DMF 6.4% w/w, pH 7.2, RT): 3.0 mg/mL
Peptide concentration after 24 h (DMF 6.4% w/w, pH 7.2, RT): >4.0 mg/mL
Peptide concentration after 5 min (DMF 6.4% w/w, pH 7.5, RT): 1.8 mg/mL
Peptide concentration after 180 min (DMF 6.4% w/w, pH 7.5, RT): >4.0 mg/mL
Peptide concentration after 5 min (DMF 6.4% w/w, pH 8.0, RT): 1.6 mg/mL
Peptide concentration after 180 min (DMF 6.4% w/w, pH 8.0, RT): >4.0 mg/mL
Peptide concentration after 5 min (DMF 6.4% w/w, pH 8.5, RT): 2.1 mg/mL
Peptide concentration after 180 min (DMF 6.4% w/w, pH 8.5, RT): >4.0 mg/mL
Peptide concentration after 5 min (DMF 6.4% w/w, pH 9.0, RT): 2.0 mg/mL
Peptide concentration after 180 min (DMF 6.4% w/w, pH 9.0, RT): >4.0 mg/mL
Peptide concentration after 5 min (DMF 6.4% w/w, pH 9.5, RT): 2.2 mg/mL
Peptide concentration after 180 min (DMF 6.4% w/w, pH 9.5, RT): >4.0 mg/mL
Peptide concentration after 5 min (DMF 6.4% w/w, pH 10.0, RT): 2.3 mg/mL
Peptide concentration after 180 min (DMF 6.4% w/w, pH 10.0, RT): >4.0 mg/mL
Peptide concentration after 5 min (DMF 6.4% w/w, pH 10.5, RT): 2.4 mg/mL
Peptide concentration after 180 min (DMF 6.4% w/w, pH 10.5, RT): >4.0 mg/mL
Peptide concentration after 5 min (DMF 6.4% w/w, pH 11.0, RT): 1.9 mg/mL
Peptide concentration after 180 min (DMF 6.4% w/w, pH 11.0, RT): >4.0 mg/mL
Peptide concentration after 5 min (DMF 12.7% w/w, pH 3.1, RT): 0.2 mg/mL
Peptide concentration after 180 min (DMF 12.7% w/w, pH 3.1, RT): 0.4 mg/mL
Peptide concentration after 24 h (DMF 12.7% w/w, pH 3.1, RT): 1.2 mg/mL
Peptide concentration after 5 min (DMF 12.7% w/w, pH 4.8, RT): 0.2 mg/mL
Peptide concentration after 180 min (DMF 12.7% w/w, pH 4.8, RT): 0.5 mg/mL
Peptide concentration after 24 h (DMF 12.7% w/w, pH 4.8, RT): 0.3 mg/mL
Peptide concentration after 5 min (DMF 12.7% w/w, pH 5.8, RT): 0.3 mg/mL
Peptide concentration after 180 min (DMF 12.7% w/w, pH 5.8, RT): 3.1 mg/mL
Peptide concentration after 24 h (DMF 12.7% w/w, pH 5.8, RT): 2.3 mg/mL
Peptide concentration after 5 min (DMF 12.7% w/w, pH 6.3, RT): 0.9 mg/mL
Peptide concentration after 180 min (DMF 12.7% w/w, pH 6.3, RT): 2.3 mg/mL
Peptide concentration after 24 h (DMF 12.7% w/w, pH 6.3, RT): >4.0 mg/mL
Peptide concentration after 5 min (DMF 12.7% w/w, pH 6.7, RT): 1.0 mg/mL
Peptide concentration after 180 min (DMF 12.7% w/w, pH 6.7, RT): 2.0 mg/mL
Peptide concentration after 24 h (DMF 12.7% w/w, pH 6.7, RT): 3.9 mg/mL
Peptide concentration after 5 min (DMF 12.7% w/w, pH 6.9, RT): 1.0 mg/mL
Peptide concentration after 180 min (DMF 12.7% w/w, pH 6.9, RT): 3.0 mg/mL
Peptide concentration after 24 h (DMF 12.7% w/w, pH 6.9, RT): >4.0 mg/mL
Peptide concentration after 5 min (DMF 12.7% w/w, pH 7.2, RT): 0.9 mg/mL
Peptide concentration after 180 min (DMF 12.7% w/w, pH 7.2, RT): 2.3 mg/mL
Peptide concentration after 24 h (DMF 12.7% w/w, pH 7.2, RT): >4.0 mg/mL
Peptide concentration after 5 min (DMF 12.7% w/w, pH 7.5, RT): 1.7 mg/mL
Peptide concentration after 180 min (DMF 12.7% w/w, pH 7.5, RT): >4.0 mg/mL
Peptide concentration after 5 min (DMF 12.7% w/w, pH 8.0, RT): 1.4 mg/mL
Peptide concentration after 180 min (DMF 12.7% w/w, pH 8.0, RT): >4.0 mg/mL
Peptide concentration after 5 min (DMF 12.7% w/w, pH 8.5, RT): 1.9 mg/mL
Peptide concentration after 180 min (DMF 12.7% w/w, pH 8.5, RT): >4.0 mg/mL
Peptide concentration after 5 min (DMF 12.7% w/w, pH 9.0, RT): 1.9 mg/mL
Peptide concentration after 180 min (DMF 12.7% w/w, pH 9.0, RT): >4.0 mg/mL
Compound: CCCCCCCCCCCCCCCC(=O)N[C@@H](CCC(=O)NCCCC[C@H](NC(=O)[C@H](C)NC(=O)[C@H](C)NC(=O)[C@H](CCC(N)=O)NC(=O)CNC(=O)[C@H](CCC(=O)O)NC(=O)[C@H](CC(C)C)NC(=O)[C@H](Cc1ccc(O)cc1)NC(=O)[C@H](CO)NC(=O)[C@H](CO)NC(=O)[C@@H](NC(=O)[C@H](CC(=O)O)NC(=O)[C@H](CO)NC(=O)[C@@H](NC(=O)[C@H](Cc1ccccc1)NC(=O)[C@@H](NC(=O)CNC(=O)[C@H](CCC(=O)O)NC(=O)[C@H](C)NC(=O)[C@@H](N)Cc1cnc[nH]1)[C@@H](C)O)[C@@H](C)O)C(C)C)C(=O)N[C@@H](CCC(=O)O)C(=O)N[C@@H](Cc1ccccc1)C(=O)N[C@H](C(=O)N[C@@H](C)C(=O)N[C@@H](Cc1c[nH]c2ccccc12)C(=O)N[C@@H](CC(C)C)C(=O)N[C@H](C(=O)N[C@@H](CCCNC(=N)N)C(=O)NCC(=O)N[C@@H](CCCNC(=N)N)C(=O)NCC(=O)O)C(C)C)[C@@H](C)CC)C(=O)O [liraglutide, Arg34,Lys26-(N-epsilon-(gamma-L-glutamyl(N-alfa-hexadecanoyl)))-GLP-1(7-37)]
